PubChem BioAssay AID651595 (National Center for Advancing Translational Sciences (NCATS), 2012)
Among all 1,100 compounds or so, fewer than 10 were called active. Not shown: some 6% with an inconclusive outcome. The call rests on the fitted dose curve; in most records, active means well fitted cell-killing curve with a large enough effect; inconclusive means small, poorly fitted or top-dose-only effect; inactive means flat fitted curve, though single readings scatter. Some of the results follow.

assay: qHTS of Nrf2 Activators: Hit Validation in Cytotox Assay; details: Cell viability counter-screen for Nrf2 activator hits; series mostly up to 46.1 µM; activity change, negative = cytotoxicity: at the top concentration;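 further: compound exposure lasted 24 hours before the ATP readout; 0% is about no effect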
In short: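 Intracellular ATP measured with CellTiter-Glo luminescence (30 min, room temperature) as a viability read-out. Cells: AREc32_fluc, cultured overnight before 24 h compound exposure at 7 concentrations, 37 °C; activity here marks cytotoxicity.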

SMILES	activity change, negative = cytotoxicity
COC(=O)c1cc(=O)nc(NN=Cc2ccco2)s1	inactive: 7.72%
O=C(CN1CCN(Cc2ccccc2)CC1)N/N=C\C=C/c1ccco1	inactive: 9.57%
Cc1ccc2nc(N(CCN(C)C)C(=O)/C=C/c3cccs3)sc2c1	inactive: 0.0568%
COC(=O)/C=C1/S/C(=N/N=C/c2ccco2)NC1=O	inactive: 6.89%
Cc1nc2sc(C(=O)c3ccccc3)c(N)c2c2c1CCCC2	inactive: -22.1%
CCN(CC)CCNC(=O)C(Cl)=C1C(Cl)=C(Cl)C(Cl)=C1Cl	inactive: -19%
CC1(C)C(=O)OC(/C=C/c2cccc([N+](=O)[O-])c2)C(C)(C)C1=O (stereo not given)	inactive: -2.42%
[O-][n+]1onc2c1CCc1c-2nn(-c2ccccc2Cl)[n+]1[O-]	inactive: -4.64%
COc1cc(Br)cc(/C=C/c2ccc3cccc(O)c3n2)c1OC	inactive: -12.5%
O=C(Nc1ccccn1)c1csc2c1CCCC2	inactive: -2.81%
Cc1cccc(C(=O)Nc2nnc(SCC(=O)NCc3ccco3)s2)c1	inactive: 6.95%
CCc1nnc(NC(=O)/C=C/c2ccco2)s1	inactive: 4.65%
COCCN(C(=O)c1ccco1)c1nc(-c2ccccc2)cs1	inactive: 2.5%
O=C(Nc1cccc(F)c1)c1ccco1	inactive: -0.254%
O=C(Nc1ncc2c(n1)CC(c1ccco1)CC2=O)c1ccc(Cl)cc1 (stereo not given)	inactive: 0.116%
O=C(Nc1ccccn1)Nc1ccccc1Cl	inactive: 6.29%
Cc1cccn2c(=O)c(C=NCCO)c(NCc3ccco3)nc12	inactive: -1.18%
O=C(Nc1cc(-c2nc3ncccc3o2)ccc1Cl)c1ccco1	inactive: 11%
COc1ccc(S(=O)(=O)NCCc2csc3nc(-c4ccc(Cl)cc4)nn23)cc1C	inactive: -1.61%
O=C(Nc1nc(-c2ccncc2)cs1)c1ccco1	inactive: 5.1%
Cc1ccc2oc(-c3cccc(NC(=O)c4ccc(Br)o4)c3)nc2c1	inactive: -1.91%
NC(=O)c1oc2ccccc2c1NC(=O)c1ccco1	inactive: -0.897%
O=[N+]([O-])c1cccc2ccc(/C=C/c3ccc(Cl)cc3)nc12	inactive: 3.46%
Oc1ccccc1C=NN=Cc1c(O)ccc2ccccc12	inactive: 3.64%

Two entries drawn at random from the list so far:
SMILES	activity change, negative = cytotoxicity
O=C(Nc1cc(-c2nc3ncccc3o2)ccc1Cl)c1ccco1	inactive: 11%
CCc1nnc(NC(=O)/C=C/c2ccco2)s1	inactive: 4.65%

Following part:

SMILES	activity change, negative = cytotoxicity
O=C(NNC(=O)c1nc(Cl)ccc1Cl)c1ccc(F)cc1	inactive: -0.0003%
O=C(N/N=C/c1c(O)ccc2ccccc12)Nc1ccccc1	inactive: -22.3%
COc1cccc(-c2nc(-c3ccccc3)no2)c1	inactive: -1.56%
C1=C(c2ccc(-c3ccccc3)cc2)Nc2ncnn2C1c1ccco1 (stereo not given)	inactive: 1.19%
CCSc1nc2ccccc2n1C(=O)/C=C/c1ccc(OC)c(OC)c1	inactive: 3.11%
Nc1nc(/C=C/c2ccc(F)cc2)nc(-c2ccccc2O)n1	inactive: -0.794%
CC(C)(C)C(=O)/C=c1\[nH]c(=O)/c(=C\c2ccccc2F)s1	inactive: -4.15%
NC(=S)NN=C1CSSC1	inactive: -21.6%
O=C(NC(=S)Nc1ccccc1F)c1ccc(Br)o1	inactive: -1.15%
Cc1ccc(O)c(NC(=O)c2cc([N+](=O)[O-])ccc2Cl)c1	inactive: 7.76%
CC(=O)c1cc2c(cc1NC(=O)c1ccco1)OCCO2	inactive: 4.77%
CS(=O)(=O)c1nc(S(=O)(=O)c2ccc(Cl)cc2)c(N2CCC3(CC2)OCCO3)s1	inactive: 12%
COc1ccccc1C=Cc1ccnc2ccccc12	inactive: 1.67%
COc1ccc2c(c1)Cc1c-2cc(Br)c(N)c1Br	inactive: 5.21%
COC(=O)c1ccc(Cl)cc1NC(=O)/C=C/c1ccc(C)o1	inactive: -9.18%
CCOc1cc(C=O)cc(N=Nc2cccc([N+](=O)[O-])c2)c1O	inactive: -5.76%
CC(OC(=O)/C=C/c1ccc2ccccc2n1)C(=O)Nc1ccc(S(N)(=O)=O)cc1 (stereo not given)	inactive: 11.4%
c1ccc(N=Nc2cn[nH]c2-c2ccco2)cc1	inactive: 6.32%
O=C(Nc1cccc2nsnc12)c1cccs1	inactive: 6.37%
O=c1oc2ccccc2cc1-c1nc2c(s1)CCc1ccccc1-2	inactive: 5.99%
O=C(O)/C=C/C(=O)c1c(-c2ccccc2)[nH]c2ccccc12	inactive: 4.85%
O=C(NNC(=O)c1sccc1-n1cccc1)c1cccc(Cl)c1	inactive: 3.63%
NC(=O)c1c(NC(=O)c2ccco2)sc2c1CCC2	inactive: 1.87%
O=[N+]([O-])c1ccc(NN=Cc2ccco2)nc1	inactive: 10.9%

SMILES	activity change, negative = cytotoxicity
Nc1ccc2c(c1)Cc1c(F)cccc1-2	inactive: 6.2%
CCn1c(SCC(=O)N/N=C/C=C\c2ccco2)nc2ccccc21	inactive: 7.4%
N/C(=N\OC(=O)c1cc(Cl)ccc1Cl)c1ccncc1	inactive: 5.08%
Cc1csc2c(=O)sc(NC(=O)c3cccs3)nc12	inactive: 2.33%
Clc1cccc(Cc2c(-c3ccco3)nc3c4ccccc4ccn23)c1	inactive: -6.06%
CC1CCN(CC2C(=O)O[C@@H]3C[C@@]4(C)CCC[C@H](C)C4=C[C@H]23)CC(C)(C)C1 (stereo not given in full)	inactive: 10.7%
N#Cc1c(-c2ccco2)cc(-c2ccccc2)[nH]c1=O	inactive: 6.52%
CSc1nc2sc3c(c2c(=O)n1C)CCC(C)C3 (stereo not given)	inactive: 9.91%
Cc1ccccc1CS(=O)(=O)c1cnc2ccccc2n1	inactive: 5.47%
O=C1S/C(=C\C=C\c2ccco2)C(=O)N1c1ccccc1	inactive: -1.34%
O=C(Nc1cccc(NC(=O)c2cccc(Cl)c2)c1)c1cccnc1	inactive: 0.671%
Cc1cccn2c(=O)c3cc(C#N)c(=O)n(-c4nnc(SCc5ccc(Cl)cc5)s4)c3nc12	inactive: 7.55%
Cc1csc2nc(NC(=O)c3ccccc3)sc(=O)c12	inactive: -4.84%
CCn1c(=NC(=O)c2ccco2)sc2cccc(F)c21	inactive: -1.54%
Cc1nc(Nc2ccccc2F)c2oc3ccccc3c2n1	inactive: 5.5%
Cc1nc2nc(-c3ccccc3)nn2c(C)c1Cl	inactive: -0.716%
Cn1c(=O)n(CCc2ccccc2)c(=O)c2c1nc1n2CCN1Cc1ccco1	inactive: -3.58%
O=C1C(=Cc2cccc(F)c2)Cc2ccccc21	inactive: -20%
COc1ccc(Cl)cc1NC(=O)CCS(=O)(=O)c1cccc2nonc12	inactive: 2.97%
O=C(CSc1nc2ccccc2s1)N/N=C/c1ccco1	inactive: 1.88%
Cn1c(N)c(C(=O)COC(=O)c2nc(Cl)ccc2Cl)c(=O)n(C)c1=O	inactive: -0.715%
Cc1ccc(/C=C/C(=O)Nc2ccc([N+](=O)[O-])c(NC(=O)/C=C/c3ccc(C)o3)c2)o1	inactive: -0.336%
Cc1cc(C)c(C#N)c(OCC(=O)c2ccccc2)n1	inactive: 0.241%
Cc1nnc2n1N=CC=C(c1ccccc1)S2	inactive: 24.6%

Quoted from the listing.
In activity change, negative = cytotoxicity, CC1CCN(CC2C(=O)O[C@@H]3C[C@@]4(C)CCC[C@H](C)C4=C[C@H]23)CC(C)(C)C1 (stereo not given in full) is entered as inactive: 10.7%
In activity change, negative = cytotoxicity, Cc1csc2c(=O)sc(NC(=O)c3cccs3)nc12 is entered as inactive: 2.33%

Going on with the list.

SMILES	activity change, negative = cytotoxicity
Cc1ccc(-c2cc(-c3cccc(F)c3)n[nH]2)c(O)c1	inactive: -26.4%
N#Cc1nc(-c2ccc(F)cc2)oc1NCc1ccco1	inactive: 4.54%
O=C(Nc1nc2ccccc2[nH]1)c1ccc(Cl)c([N+](=O)[O-])c1	inactive: 1.45%
O=C(/C=C/c1ccccc1)Nc1nc(-c2cccs2)ns1	inactive: -17.8%
Cc1cc(C)c(C#N)c(OCC(=O)c2ccc(Br)cc2)n1	inactive: -7.99%
N#C/C(=C\c1ccccc1)c1ccccn1	inactive: -2.49%
O=c1cc(-c2ccccc2)nc2c(Cl)cc(Cl)cn12	inactive: 9.44%
Cn1c(=O)c2nc(NCc3ccccc3)sc2n(C)c1=O	inactive: 8.23%
COC(=O)c1ccc2nc(-c3cccc(Br)c3)c(CC3CCCCC3)n2c1	inactive: -3.47%
N#C/C(=C\C=C\c1ccccc1)C(=O)NCc1cccnc1	inactive: -5.37%
COC(=O)c1ccc2nc(-c3ccco3)c(Cc3ccccc3)n2c1	inactive: 0.341%
O=C(Nc1nccs1)c1cc(-c2ccco2)nc2ccccc12	inactive: 7.68%
Clc1nc(NCc2ccco2)nc(N2CCCCC2)n1	inactive: -0.83%
O=[N+]([O-])c1cccc(-c2nc(-c3ccccn3)no2)c1	inactive: -5.21%
O=C1NC(=Nc2ccccc2)S/C1=C\c1ccccc1	inactive: 5.24%
COc1ccc(OC)c(/C=C2\SC(=S)N(Cc3cccnc3)C2=O)c1	inactive: 6.18%
O=C1Nc2cccnc2N(C(=O)CCl)c2ccccc21	inactive: 27.6%
O=C(/C=C/c1ccco1)Nc1ccc(-c2nc3ccccc3[nH]2)cc1	inactive: 9.84%
O=C(Nc1ncnc2sc3c(c12)CCC3)c1ccco1	inactive: -0.512%
Cc1noc(C)c1COc1ccccc1C(=O)NNC(=O)c1ccccc1F	inactive: 3.08%
O=C(Nc1ccc(Br)c(Cl)c1)c1ccco1	inactive: -0.339%
O=[N+]([O-])c1ccc(/C=C/c2ccc3cccc([N+](=O)[O-])c3n2)cc1	inactive: -16.5%
COc1ccc([N+](=O)[O-])cc1NC(=O)c1ccco1	inactive: 6.58%
O=c1oc2ccc(Cl)cc2nc1/C=C(\O)c1cccs1	inactive: -4.12%

SMILES	activity change, negative = cytotoxicity
O=[N+]([O-])c1cccc(-c2cn(-c3ccccc3)c(=S)[nH]2)c1	inactive: 2.98%
COC(=O)c1cc2c(s1)-c1cc(F)ccc1OC2	inactive: 7.69%
CSc1ccccc1NC(=O)c1cc(-c2cccs2)on1	inactive: -1.28%
CS(=O)(=O)Cc1nc2ccccc2oc1=O	inactive: 6.42%
O=C(c1nn2c(C(F)(F)F)cc(-c3ccco3)nc2c1Br)N1CCCc2ccccc21	inactive: -15%
O=C(Nc1ncnc2sc3c(c12)CCCCC3)c1ccco1	inactive: 7.98%
Cn1c(NCC2CCCCC2)nc2cc(-c3ccsc3)sc2c1=O	inactive: 2.56%
FC(F)(F)c1cc(-c2ccco2)nc(-n2nnc3ccccc32)n1	inactive: -9.04%
O=C(Nc1ccccc1O)c1cccc(NC(=O)c2ccco2)c1	inactive: 8.6%
COc1ccc(Cl)cc1C(=O)O/N=C(\N)c1ccncc1	inactive: 1.39%
O=C(CCNc1cc(Cl)cc(Cl)c1)c1cccs1	inactive: -3.32%
Cc1ccc2cc3c(NC(=O)c4ccco4)nn(C)c3nc2c1	inactive: 4.44%
COc1cc(/C=C/c2ccc3cccc(O)c3n2)cc(OC)c1OC	inactive: -18.9%
S=c1[nH]nc(-c2ccco2)n1/N=C/c1ccccc1	inactive: 5.36%
COc1ccc(C(=O)NCC(=O)N/N=C/C(C)=C/c2ccco2)cc1OC	inactive: 4.64%
CC(=O)Nc1nc2cccc([N+](=O)[O-])c2s1	inactive: 0.137%
c1cncc(-c2noc(-c3cccc4ccccc34)n2)c1	inactive: -0.825%
O=C(Nc1cccc([N+](=O)[O-])c1)c1[nH]ncc1Cl	inactive: -11.2%
O=c1[nH]n(Cc2ccccc2)c(=O)c2ccccc12	inactive: 4.35%
C/C(=N\Nc1ccccn1)c1cccs1	inactive: 5.06%
C/C(=N\NC(=O)c1c[nH]c2ccccc12)c1ccco1	inactive: 3.92%
O=C1N/C(=N\N=C\c2ccco2)SC1Cc1ccc(F)cc1 (stereo not given)	inactive: -10.6%
Cc1cccc2nc3c(nc12)-c1ccccc1C3=O	inactive: -6.85%
COc1ccc(OC)c(NC(=O)C(C#N)=Cc2ccco2)c1	inactive: 2.46%

Sorted by SMILES length (high to low): some entries from above.
SMILES	activity change, negative = cytotoxicity
CC(C)(C)C(=O)/C=c1\[nH]c(=O)/c(=C\c2ccccc2F)s1	inactive: -4.15%
Clc1cccc(Cc2c(-c3ccco3)nc3c4ccccc4ccn23)c1	inactive: -6.06%
Clc1nc(NCc2ccco2)nc(N2CCCCC2)n1	inactive: -0.83%
